Values of other authors in patent US20060127478A1, “Oral dosage formulation” (priority 2003, published 2006).
At least one compound was matched to its structure with a doubt left.

Details: in vivo

For CCCCC(C)(O)C/C=C/[C@H]1[C@H](O)CC(=O)[C@@H]1CCCCCCC(=O)OC (mixture of isomers) [Misoprostol], the “prevention of NSAID-induced gastroduodenal ulceration” value is listed as “effectively preventing”.
